Measurements reported in the supplement of paper PMC8090911.
Where a name gives a salt, the structure may show the parent alone. The list shows a part of the results. Most values come without repeats; read them as rough.

System: p95-ErbB2-MCF7
Assay: perinuclear lysosome accumulation (PNLA, size of LAMP2 puncta), robust Z-score vs plate median; higher = more perinuclear lysosome accumulation (reversal of invasive lysosome distribution)
Details: 5 µM; 24 h

| Compound | perinuclear lysosome accumulation |
| --- | --- |
| CCN(CC)CCOC(=O)c1ccc(N)cc1 [Procaine hydrochloride] | 1.29 |
| Cc1c(C)c2c(c(C)c1O)CCC(C)(C(=O)O)O2 (stereo unspecified) [Trolox] | -0.377 |
| CC[C@H](C)C(=O)O[C@H]1C[C@@H](C)C=C2C=C[C@H](C)[C@H](CC[C@@H]3C[C@@H](O)CC(=O)O3)[C@H]21 [Lovastatin] | 0.298 |
| CNC(=O)c1c(I)c(C(=O)NCC(=O)Nc2c(I)c(C(=O)O)c(I)c(C(=O)NCCO)c2I)c(I)c(N(C)C(C)=O)c1I [Ioxaglic acid] | -1.1 |
| CCCCNc1cc(C(=O)O)cc(S(N)(=O)=O)c1Oc1ccccc1 [Bumetanide] | -0.284 |
| CC(=O)Oc1ccccc1C(=O)Oc1ccccc1C(=O)O [Acetylsalicylsalicylic acid] | -0.0859 |
| N=C(N)NCc1cccc(I)c1 [Iobenguane sulfate] | -0.279 |
| Cc1ccnc(NS(=O)(=O)c2ccc(N)cc2)n1 [Sulfamerazine] | -0.233 |
| C[C@H]1NC(=O)NC1=O [Methylhydantoin-5-(D)] | 0.358 |
| CNC[C@H](O)[C@@H](O)[C@H](O)[C@H](O)CO [Meglumine] | 1.03 |
| Nc1ccc(S(=O)(=O)Nc2cnc3ccccc3n2)cc1 [Sulfaquinoxaline sodium salt] | 0.487 |
| NCCCC(O)(P(=O)(O)O)P(=O)(O)O [Alendronate sodium] | 0.000183 |
| O=C(O)c1cc(/N=N/c2ccc(S(=O)(=O)Nc3ccccn3)cc2)ccc1O [Sulfasalazine] | -0.508 |
| CCc1cccc(CC)c1NC(=O)CN(CC(=O)O)CC(=O)O [Etifenin] | 1.31 |
| CN/C(=N\CCSCc1nc[nH]c1C)NC#N [Cimetidine] | 0.0111 |
| CCCCc1ccc2[nH]c(NC(=O)OC)nc2c1 [Parbendazole] | -0.56 |
| Nc1ncnc2c1ncn2C1OC(COP(=O)(O)O)C(O)C1O (stereo unspecified) [Adenosine 5'-monophosphate monohydrate] | -0.191 |
| C[C@@H]1C[C@H]2[C@@H]3CCC4=CC(=O)C=C[C@]4(C)[C@@]3(Cl)[C@@H](O)C[C@]2(C)[C@@]1(OC(=O)c1ccco1)C(=O)CCl [Mometasone furoate] | -1.78 |
| CN1CCCN(C(c2ccccc2)c2ccc(Cl)cc2)CC1 (stereo unspecified) [Homochlorcyclizine dihydrochloride] | 4.74 |
| CC(C)OC(=O)C(C)(C)Oc1ccc(C(=O)c2ccc(Cl)cc2)cc1 [Fenofibrate] | -0.0606 |
| Cc1c(O)c(=O)n(-c2ccccc2)n1C [Antipyrine, 4-hydroxy] | 1.92 |
| Cc1cc2c(s1)Nc1ccccc1N=C2N1CCN(C)CC1 [Olanzapine] | 1.09 |
| CN1CCCN=C1/C=C/c1cccc(O)c1 [Oxantel pamoate] | 0.0633 |
| CC(N)CCCC(C)(C)O (stereo unspecified) [Heptaminol hydrochloride] | -0.271 |
| CC(=O)O[C@H]1C(=O)[C@@]2(C)[C@H]([C@H](OC(=O)c3ccccc3)[C@]3(O)C[C@H](OC(=O)[C@H](O)[C@@H](NC(=O)c4ccccc4)c4ccccc4)C(C)=C1C3(C)C)[C@]1(OC(C)=O)CO[C@@H]1C[C@@H]2O [Paclitaxel] | 0.884 |
| CCCN(CCC)CCc1cccc2c1CC(=O)N2 [Ropinirole HCl] | 0.534 |

| Compound | perinuclear lysosome accumulation |
| --- | --- |
| Cc1nc2ccccn2c(=O)c1CCN1CCC(C(=O)c2ccc(F)cc2)CC1 [Pirenperone] | -1.3 |
| N/C(=N\C(=O)c1nc(Cl)c(N)nc1N)NCc1ccccc1 [Benzamil hydrochloride] | -2.59 |
| O=C(CCNNC(=O)c1ccncc1)NCc1ccccc1 [Nialamide] | -0.158 |
| NC(=O)c1cnccn1 [Pyrazinamide] | 0.411 |
| CC1(C)S[C@@H]2[C@H](NC(=O)[C@H](N)c3ccccc3)C(=O)N2[C@H]1C(=O)O [Ampicillin trihydrate] | -0.0969 |
| O=c1n(CCCN2CCN(c3cccc(Cl)c3)CC2)nc2ccccn12 [Trazodone hydrochloride] | 0.501 |
| COc1ccc2cc([C@H](C)C(=O)O)ccc2c1 [Naproxen] | 1 |
| Nc1cc(N2CCCCC2)nc(N)[n+]1[O-] [Minoxidil] | 1.02 |
| Cc1ncc([N+](=O)[O-])n1CC(C)O (stereo unspecified) [Secnidazole] | -0.388 |
| C/C=C(/C(=C/C)c1ccc(O)cc1)c1ccc(O)cc1 [Dienestrol] | -0.0646 |
| O=C(O)c1ccccc1OP(=O)(O)O [Fosfosal] | 0.421 |
| COc1cccc2c1C(=O)c1c(O)c3c(c(O)c1C2=O)C[C@@](O)(C(C)=O)C[C@@H]3O[C@H]1C[C@H](N)[C@H](O)[C@H](C)O1 [Daunorubicin hydrochloride] | -1.38 |
| C=CC1=C(C(=O)O)N2C(=O)[C@@H](NC(=O)/C(=N\O)c3csc(N)n3)[C@H]2SC1 [Cefdinir] | -0.463 |
| CC(=O)NS(=O)(=O)c1ccc(N)cc1 [Sulfacetamide sodic hydrate] | -1.19 |
| Cc1cn([C@H]2C=C[C@@H](CO)O2)c(=O)[nH]c1=O [Stavudine] | 1.04 |
| CCN(CC)CC(=O)Nc1c(C)cccc1C [Lidocaïne hydrochloride] | -0.138 |
| c1ccc2c(CC3=NCCN3)cccc2c1 [Naphazoline hydrochloride] | 0.734 |
| CC(=O)OCC(=O)[C@@]12OC(C)(C)O[C@@H]1C[C@H]1[C@@H]3C[C@H](F)C4=CC(=O)C=C[C@]4(C)[C@@]3(F)[C@@H](O)C[C@@]12C [Fluocinonide] | -1.9 |
| CO[C@@H]1[C@@H](O[C@@H]2O[C@H](C)[C@@H](O[C@H]3C[C@@](C)(O)[C@@H](OC(=O)CC(C)C)[C@H](C)O3)[C@H](N(C)C)[C@H]2O)[C@@H](CC=O)C[C@@H](C)[C@@H](O)/C=C/C=C/C[C@@H](C)OC(=O)C[C@H]1OC(C)=O [Josamycin] | 0.247 |
| CC(=O)CC(c1ccccc1)c1c(O)c2ccccc2oc1=O (stereo unspecified) [Warfarin] | 1.2 |
| CC[C@@H]1C(=O)OC[C@@H]1Cc1cncn1C [Pilocarpine nitrate] | 0.399 |
| CC(C)NC[C@@H](O)COc1ccc(CC(N)=O)cc1 [(R)-(+)-Atenolol] | -1.61 |
| NS(=O)(=O)c1cc2c(cc1C(F)(F)F)NCNS2(=O)=O [Hydroflumethiazide] | -0.845 |
| CS(=O)(=O)OCCCCOS(C)(=O)=O [Busulfan] | -0.454 |
| Cc1c(NC(=O)c2cccnc2)c(=O)n(-c2ccccc2)n1C [Nifenazone] | 2.13 |
| N[C@@H](Cc1cc(I)c(Oc2ccc(O)c(I)c2)c(I)c1)C(=O)O [Liothyronine] | -1.36 |

| Compound | perinuclear lysosome accumulation |
| --- | --- |
| CN1CCC(=C2c3ccccc3Sc3ccccc32)CC1 [Pimethixene maleate] | 1.97 |
| C#C[C@]1(O)CC[C@H]2[C@@H]3CCC4=CCCC[C@@H]4[C@H]3CC[C@@]21C [Lynestrenol] | -0.867 |
| C[C@H](CCC(=O)O)[C@H]1CC[C@H]2[C@@H]3[C@@H](O)C[C@@H]4C[C@H](O)CC[C@]4(C)[C@H]3CC[C@]12C [Urosiol] | 0.986 |
| O=C(CCCN1CCN(c2ccccn2)CC1)c1ccc(F)cc1 [Azaperone] | 0.22 |
| NC[C@@H]1O[C@@H](O[C@H]2[C@H](O)[C@@H](O[C@H]3O[C@H](CO)[C@@H](O)[C@H](N)[C@H]3O)[C@H](N)C[C@@H]2N)[C@@H](O)[C@H](O)[C@H]1O [Kanamycin A sulfate] | -0.353 |
| CC1CC(OC(=O)c2ccccc2O)CC(C)(C)C1 (stereo unspecified) [Homosalate] | 0.151 |
| COC(=O)C1=C(C#N)NC(C)=C(C(=O)OC(C)C)C1c1cccc([N+](=O)[O-])c1 (stereo unspecified) [Nilvadipine] | -0.0506 |
| OCCN(CCO)c1nc(N2CCCCC2)c2nc(N(CCO)CCO)nc(N3CCCCC3)c2n1 [Dipyridamole] | 0.459 |
| O=C(O)c1ccccc1C(=O)Nc1ccc(S(=O)(=O)Nc2nccs2)cc1 [Phthalylsulfathiazole] | -0.339 |
| CN1CCN(C(c2ccccc2)c2ccccc2)CC1 [Cyclizine hydrochloride] | 0.295 |
| CN(C)CCOC(c1ccccc1)c1ccccc1.Cn1c(=O)c2[nH]c(Cl)nc2n(C)c1=O [Dimenhydrinate] | 0.473 |
| Clc1ccc2c(c1)CCc1cccnc1C2=C1CCNCC1 [Desloratadine] | 2.15 |
| O=C1NCC2(CCN(CCc3ccccc3)CC2)O1 [Fenspiride hydrochloride] | -1.26 |
| CCCOc1ccc2[nH]c(NC(=O)OC)nc2c1 [Oxibendazol] | -1.24 |
| O=C(c1ccc(F)cc1)C1CCN(CCn2c(=O)[nH]c3ccccc3c2=O)CC1 [Ketanserin tartrate hydrate] | -1.61 |
| CCN(CC)C(=O)c1ccc(O)c(OC)c1 [Ethamivan] | -0.67 |
| CN(C)C(=N)NC(=N)N [Metformin hydrochloride] | -0.54 |
| NCCCCCC(=O)O [Aminocaproic acid] | 0.591 |
| CNCCc1ccccn1 [Betahistine mesylate] | 0.632 |
| CC=CC(=O)N(CC)c1ccccc1C [Crotamiton] | -2.23 |
| Nc1nc2c(ncn2COC(CO)CO)c(=O)[nH]1 [Ganciclovir] | 0.129 |
| Clc1cccc(Cl)c1NC1=NCCN1 [Clonidine hydrochloride] | 0.512 |
| CO[C@H]1/C=C/O[C@@]2(C)Oc3c(C)c(O)c4c(O)c(c5c(nc6cc(C)ccn65)c4c3C2=O)NC(=O)/C(C)=C\C=C\[C@H](C)[C@H](O)[C@@H](C)[C@@H](O)[C@@H](C)[C@H](OC(C)=O)[C@@H]1C [Rifaximin] | 0.191 |
| CC(=O)O[C@]1(C(C)=O)CC[C@H]2[C@@H]3C=C(Cl)C4=CC(=O)CC[C@]4(C)[C@H]3CC[C@@]21C [Chlormadinone acetate] | 0.483 |

Arranged by heavy-atom count (low to high): 5 of the compounds above.

| Compound | perinuclear lysosome accumulation |
| --- | --- |
| Clc1cccc(Cl)c1NC1=NCCN1 [Clonidine hydrochloride] | 0.512 |
| Clc1ccc2c(c1)CCc1cccnc1C2=C1CCNCC1 [Desloratadine] | 2.15 |
| O=C(O)c1ccccc1C(=O)Nc1ccc(S(=O)(=O)Nc2nccs2)cc1 [Phthalylsulfathiazole] | -0.339 |
| CC(=O)O[C@]1(C(C)=O)CC[C@H]2[C@@H]3C=C(Cl)C4=CC(=O)CC[C@]4(C)[C@H]3CC[C@@]21C [Chlormadinone acetate] | 0.483 |
| NC[C@@H]1O[C@@H](O[C@H]2[C@H](O)[C@@H](O[C@H]3O[C@H](CO)[C@@H](O)[C@H](N)[C@H]3O)[C@H](N)C[C@@H]2N)[C@@H](O)[C@H](O)[C@H]1O [Kanamycin A sulfate] | -0.353 |
